No constants are given. Whether binding was seen depends on the method and setting. Binding seen in cells or lysates may run through a third protein. These calls come from enrichment with a bait or labelling near it, and not all partners need be listed.

Sequences of proteins named here, by UniProt entry; tags and fusion partners are left off.
UniProt Q9BQA1: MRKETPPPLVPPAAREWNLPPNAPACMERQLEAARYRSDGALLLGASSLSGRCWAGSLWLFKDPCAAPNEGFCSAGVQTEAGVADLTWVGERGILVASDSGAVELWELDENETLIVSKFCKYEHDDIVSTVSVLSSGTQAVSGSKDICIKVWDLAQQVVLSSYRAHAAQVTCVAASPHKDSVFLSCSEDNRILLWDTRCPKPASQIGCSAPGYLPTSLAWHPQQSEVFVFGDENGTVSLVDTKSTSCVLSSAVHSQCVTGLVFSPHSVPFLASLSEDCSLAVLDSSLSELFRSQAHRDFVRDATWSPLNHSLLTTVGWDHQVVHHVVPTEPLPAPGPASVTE
UniProt P31947: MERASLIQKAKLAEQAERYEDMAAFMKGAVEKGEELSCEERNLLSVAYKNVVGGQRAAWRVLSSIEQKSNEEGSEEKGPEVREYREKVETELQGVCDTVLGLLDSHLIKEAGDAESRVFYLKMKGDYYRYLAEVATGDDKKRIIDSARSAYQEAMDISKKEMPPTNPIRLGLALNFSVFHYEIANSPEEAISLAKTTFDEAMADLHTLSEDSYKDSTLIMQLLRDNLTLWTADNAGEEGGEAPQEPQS

This experiment concerns the target WDR77 (human (endogenous in LNCaP and VCaP)) (UniProt Q9BQA1). The experiment can be described thus: affinity purification with mass spectrometry; nuclear extracts of LNCaP cells after 16 hr of R1881 (5 nM) or vehicle, immunoprecipitated with p53 or WDR77 antibodies, gel bands digested with trypsin, LC-MS.

“14-3-3 sigma (from UniProt P31947 1-248)”: the binding entry is listed as “binds”.

The record behind these values is PMC5608510.
